# The other results are listed elsewhere or left out.
# B1: DCIR1 (Mus musculus), Q9QZ15 (protein)
# chain: MASEITYAEVKFKNESNSLHTYSESPAAPREKPIRDLRKPGSPSLLLTSLMLLLLLLAITFLVAFIIYFQKYSQLLEEKKAAKNIMHNELNCTKSVSPMEDKVWSCCPKDWRLFGSHCYLVPTVSSSASWNKSEENCSRMGAHLVVIQSQEEQDFITGILDTHAAYFIGLWDTGHRQWQWVDQTPYEESITFWHNGEPSSGNEKCATIIYRWKTGWGWNDISCSLKQKSVCQMKKINL
# How the values were obtained:
# Test in all cases: glycan array binding signal (z-score within array); higher = stronger binding
# Conditions in all cases: glycan notation: IUPAC condensed, linker removed
# GalNAc(b1-4)GlcNAc = target: GalNAc(b1-4)GlcNAc
# How it was run: (§1)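 Arrays were curated from the Consortium for Functional Glycomics database, 3228 in total, and kept only where the protein sequence was available. Binding is expressed as a within-array Z-score. This score was averaged across arrays of the same protein sequence at different concentrations or buffers and across linkers, and negative values can be read as non-binding.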
# [1] = target: GalNAc(b1-4)GlcNAc(b1-2)Man
# How it was run: as §1
# [2] = target: GalNAc(b1-4)GlcNAc(b1-2)Man(a1-3)[GalNAc(b1-4)GlcNAc(b1-2)Man(a1-6)]Man(b1-4)GlcNAc(b1-4)GlcNAc
# How it was run: as §1
# [3] = target: GalNAc(b1-4)GlcNAc(b1-3)GalNAc(b1-4)GlcNAc
# How it was run: as §1
# GalNAc(b1-4)GlcNAc6S = target: GalNAc(b1-4)GlcNAc6S
# How it was run: as §1
# GalNAc(b1-6)GalNAc = target: GalNAc(b1-6)GalNAc
# How it was run: as §1
# GalNAc3S(b1-4)GlcNAc = target: GalNAc3S(b1-4)GlcNAc
# How it was run: as §1
# GalNAc3S(b1-4)GlcNAc3S = target: GalNAc3S(b1-4)GlcNAc3S
# How it was run: as §1
# [4] = target: GalNAc3S(b1-4)[Fuc(a1-3)]GlcNAc
# How it was run: as §1
# GalNAc4S6S(b1-4)GlcNAc = target: GalNAc4S6S(b1-4)GlcNAc
# How it was run: as §1
# GalNAc6S(b1-4)GlcNAc = target: GalNAc6S(b1-4)GlcNAc
# How it was run: as §1
# Glc(a1-4)Glc = target: Glc(a1-4)Glc
# How it was run: as §1
# [5] = target: Glc(a1-4)Glc(a1-4)Glc(a1-4)Glc
# How it was run: as §1
# Glc(a1-6)Glc(a1-6)Glc = target: Glc(a1-6)Glc(a1-6)Glc
# How it was run: as §1
# [6] = target: Glc(a1-6)Glc(a1-6)Glc(a1-6)Glc
# How it was run: as §1
# Glc(b1-4)Glc = target: Glc(b1-4)Glc
# How it was run: as §1
# Glc(b1-6)Glc = target: Glc(b1-6)Glc
# How it was run: as §1
# GlcA(b1-3)Gal = target: GlcA(b1-3)Gal
# How it was run: as §1
# GlcA(b1-3)GlcNAc = target: GlcA(b1-3)GlcNAc
# How it was run: as §1
# GlcA(b1-6)Gal = target: GlcA(b1-6)Gal
# How it was run: as §1
# [7] = target: GlcA3S(b1-3)Gal(b1-4)GlcNAc(b1-2)Man
# How it was run: as §1
# [8] = target: GlcA3S(b1-3)Gal(b1-4)GlcNAc(b1-3)Gal(b1-4)Glc
# How it was run: as §1
# [9] = target: GlcNAc(a1-3)Gal(b1-4)GlcNAc
# How it was run: as §1
# [10] = target: GlcNAc(a1-4)Gal(b1-3)GlcNAc
# How it was run: as §1
# [11] = target: GlcNAc(a1-4)Gal(b1-4)GalNAc
# How it was run: as §1
# [12] = target: GlcNAc(a1-4)Gal(b1-4)GlcNAc
# How it was run: as §1
# [13] = target: GlcNAc(a1-4)Gal(b1-4)GlcNAc(b1-3)Gal(b1-4)Glc
# How it was run: as §1
# [14] = target: GlcNAc(a1-4)Gal(b1-4)GlcNAc(b1-3)Gal(b1-4)GlcNAc
# How it was run: as §1
# [15] = target: GlcNAc(a1-4)Gal(b1-4)GlcNAc(b1-3)Gal(b1-4)GlcNAc(b1-3)Gal(b1-4)GlcNAc
# How it was run: as §1
# [16] = target: GlcNAc(a1-4)Gal(b1-4)GlcNAc(b1-3)Gal(b1-4)[Fuc(a1-3)]GlcNAc(b1-3)Gal(b1-4)[Fuc(a1-3)]GlcNAc
# How it was run: as §1
# [17] = target: GlcNAc(a1-6)Gal(b1-4)GlcNAc
# How it was run: as §1
# [18] = target: GlcNAc(b1-2)Gal(b1-3)GalNAc
# How it was run: as §1
# [19] = target: GlcNAc(b1-2)Man(a1-3)[GlcNAc(b1-2)Man(a1-6)]Man(b1-4)GlcNAc(b1-4)GlcNAc
# How it was run: as §1
# [20] = target: GlcNAc(b1-2)Man(a1-3)[GlcNAc(b1-2)Man(a1-6)]Man(b1-4)GlcNAc(b1-4)[Fuc(a1-6)]GlcNAc
# How it was run: as §1
# [21] = target: GlcNAc(b1-2)Man(a1-3)[GlcNAc(b1-4)][GlcNAc(b1-2)Man(a1-6)]Man(b1-4)GlcNAc(b1-4)GlcNAc
# How it was run: as §1
# [22] = target: GlcNAc(b1-2)Man(a1-3)[GlcNAc(b1-4)][GlcNAc(b1-2)Man(a1-6)]Man(b1-4)GlcNAc(b1-4)[Fuc(a1-6)]GlcNAc
# How it was run: as §1
# [23] = target: GlcNAc(b1-2)[GlcNAc(b1-4)]Man(a1-3)[GlcNAc(b1-2)Man(a1-6)]Man(b1-4)GlcNAc(b1-4)GlcNAc
# How it was run: as §1
# [24] = target: GlcNAc(b1-2)[GlcNAc(b1-4)]Man(a1-3)[GlcNAc(b1-4)][GlcNAc(b1-2)Man(a1-6)]Man(b1-4)GlcNAc(b1-4)GlcNAc
# How it was run: as §1
# [25] = target: GlcNAc(b1-2)[GlcNAc(b1-4)]Man(a1-3)[GlcNAc(b1-4)][GlcNAc(b1-2)[GlcNAc(b1-6)]Man(a1-6)]Man(b1-4)GlcNAc(b1-4)GlcNAc
# How it was run: as §1
# [26] = target: GlcNAc(b1-2)[GlcNAc(b1-4)]Man(a1-3)[GlcNAc(b1-4)][GlcNAc(b1-2)[GlcNAc(b1-6)]Man(a1-6)]Man(b1-4)GlcNAc(b1-4)[Fuc(a1-6)]GlcNAc
# How it was run: as §1
# [27] = target: GlcNAc(b1-2)[GlcNAc(b1-6)]Man(a1-6)[GlcNAc(b1-2)Man(a1-3)]Man(b1-4)GlcNAc(b1-4)GlcNAc
# How it was run: as §1
# [28] = target: GlcNAc(b1-2)[GlcNAc(b1-6)]Man(a1-6)[GlcNAc(b1-2)Man(a1-3)]Man(b1-4)GlcNAc(b1-4)[Fuc(a1-6)]GlcNAc
# How it was run: as §1
# [29] = target: GlcNAc(b1-2)[GlcNAc(b1-6)]Man(a1-6)[GlcNAc(b1-4)][GlcNAc(b1-2)Man(a1-3)]Man(b1-4)GlcNAc(b1-4)GlcNAc
# How it was run: as §1
# GlcNAc(b1-3)Fuc = target: GlcNAc(b1-3)Fuc
# How it was run: as §1
# GlcNAc(b1-3)Gal = target: GlcNAc(b1-3)Gal
# How it was run: as §1
binder,measurement,setting,value
B1,glycan array binding signal (z-score),GalNAc(b1-4)GlcNAc,1.05
same,glycan array binding signal (z-score),[1],-0.317
same,glycan array binding signal (z-score),[2],1.72
same,glycan array binding signal (z-score),[3],-0.611
same,glycan array binding signal (z-score),GalNAc(b1-4)GlcNAc6S,0.095
same,glycan array binding signal (z-score),GalNAc(b1-6)GalNAc,-0.978
same,glycan array binding signal (z-score),GalNAc3S(b1-4)GlcNAc,-1
same,glycan array binding signal (z-score),GalNAc3S(b1-4)GlcNAc3S,-1.09
same,glycan array binding signal (z-score),[4],-0.573
same,glycan array binding signal (z-score),GalNAc4S6S(b1-4)GlcNAc,-0.77
same,glycan array binding signal (z-score),GalNAc6S(b1-4)GlcNAc,-0.83
same,glycan array binding signal (z-score),Glc(a1-4)Glc,-0.145
same,glycan array binding signal (z-score),[5],0.649
same,glycan array binding signal (z-score),Glc(a1-6)Glc(a1-6)Glc,-0.606
same,glycan array binding signal (z-score),[6],1.61
same,glycan array binding signal (z-score),Glc(b1-4)Glc,0.278
same,glycan array binding signal (z-score),Glc(b1-6)Glc,0.81
same,glycan array binding signal (z-score),GlcA(b1-3)Gal,0.644
same,glycan array binding signal (z-score),GlcA(b1-3)GlcNAc,-0.507
same,glycan array binding signal (z-score),GlcA(b1-6)Gal,0.627
same,glycan array binding signal (z-score),[7],-0.599
same,glycan array binding signal (z-score),[8],-0.974
same,glycan array binding signal (z-score),[9],-0.488
same,glycan array binding signal (z-score),[10],-0.108
same,glycan array binding signal (z-score),[11],1.16
same,glycan array binding signal (z-score),[12],-0.438
same,glycan array binding signal (z-score),[13],0.014
same,glycan array binding signal (z-score),[14],-1.06
same,glycan array binding signal (z-score),[15],-1.1
same,glycan array binding signal (z-score),[16],0.243
same,glycan array binding signal (z-score),[17],-0.776
same,glycan array binding signal (z-score),[18],0.053
same,glycan array binding signal (z-score),[19],-0.579
same,glycan array binding signal (z-score),[20],-0.299
same,glycan array binding signal (z-score),[21],-0.773
same,glycan array binding signal (z-score),[22],-0.538
same,glycan array binding signal (z-score),[23],-0.791
same,glycan array binding signal (z-score),[24],-0.101
same,glycan array binding signal (z-score),[25],-1.03
same,glycan array binding signal (z-score),[26],-0.971
same,glycan array binding signal (z-score),[27],-0.651
same,glycan array binding signal (z-score),[28],-0.244
same,glycan array binding signal (z-score),[29],-0.4
same,glycan array binding signal (z-score),GlcNAc(b1-3)Fuc,-0.74
same,glycan array binding signal (z-score),GlcNAc(b1-3)Gal,-0.363

# Reformatted tab-delimited: entries from further up
binder	measurement	setting	value
B1	glycan array binding signal (z-score)	[1]	-0.317
same	glycan array binding signal (z-score)	[3]	-0.611
same	glycan array binding signal (z-score)	Glc(b1-6)Glc	0.81

# Reference: the supplement of paper PMC8728848
